# Library screen at single concentrations

The values are deposited in ChEMBL (CHEMBL3988442, “University of Dundee, Small-Polar-MMV Screening Library” (2021)).

Mtb glucose medium: 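Whole-cell growth test on Mycobacterium tuberculosis, read after 3 days in glucose-containing 7H9 medium; the read-out is not stated. Tested at 50 µM. The record gives no direction; compounds that gave an IC50 in retests scored well above the rest, so higher reads as more growth inhibition. About 69,000 compounds were tested under these conditions; 1.1% (about 760) showed 50% or more at least once.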
Mtb cholesterol medium: 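Phenotypic screen: M. tuberculosis growth, cholesterol and DPPC medium, 4 days; the read-out is not stated. Tested at 50 µM. The record gives no direction; compounds that gave an IC50 in retests scored well above the rest, so higher reads as more growth inhibition. Of about 69,000 compounds tested this way, about 370 (0.54%) reached 50% or more in at least one test.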

Each number is a percent effect as filed. How 0% and 100% were set is not recorded. Most values in the screen are low, and negative values occur. The compounds are a random part of those screened. Two or more numbers in one place are separate tests of the same structure; such repeats can differ widely.

O=c1[nH]cc(Nc2ccccc2)c(=O)[nH]1 gave Mtb glucose medium: -8.154% and 16.29%; Mtb cholesterol medium: -64.47%. For CCN1CCN(CCCNC(=O)c2cc3ccc(C)cc3nc2C)CC1 the result was Mtb glucose medium: -4.906%; Mtb cholesterol medium: -1.283% and -5.934%. With O=C1CCCCN1Cc1cccc(NC(=O)N2CCSCC2)c1 the screen gave Mtb glucose medium: -1.298% and -4.759%; Mtb cholesterol medium: -11.41%. Result for Cc1ncoc1C(=O)N1CCOC(CCCC(C)C)C1 (stereo unspecified) was Mtb glucose medium: 10.76% and 2.226%; Mtb cholesterol medium: 19.19%. Result for O=C(COc1coc(CN2CCCC2)cc1=O)Nc1cc(Cl)ccc1Cl was Mtb glucose medium: -35.72%; Mtb cholesterol medium: -6.598%.

CC(CCc1ccccc1)N1CCC(C(=O)Nc2cnccn2)CC1 (stereo unspecified) read Mtb glucose medium: -9.959%; Mtb cholesterol medium: -2.527%. For Cc1nc(C2CCCN2C(=O)Cc2ccc3c(c2)OCO3)nc(O)c1C (stereo unspecified) the result was Mtb glucose medium: 4.34%; Mtb cholesterol medium: -14.13%. With Cc1cc(C)n(CCC(=O)N2CCC(c3nc(C(C)C)no3)CC2)n1 the screen gave Mtb glucose medium: -4.111%; Mtb cholesterol medium: -0.9026%. Result for COCCN1CCC2(CC1)CC(OCC1CC1)c1ccc(C)cc12 (stereo unspecified) was Mtb glucose medium: 2.029% and 1.643%; Mtb cholesterol medium: -9.828% and -2.457%. With O=C(Nc1ccc(N2CCOCC2)nc1)N1CCc2sccc2C1 the screen gave Mtb glucose medium: 2.796%; Mtb cholesterol medium: -1.772%.

With O=C(NCCc1ccccc1)N1CCC(C2OCCO2)CC1 the screen gave Mtb glucose medium: -2.121%; Mtb cholesterol medium: -18.1%. CNS(=O)(=O)Cc1ccc(CNc2ccc(C#N)cn2)cc1 read Mtb glucose medium: 32.61%; Mtb cholesterol medium: 23.88%. [H][C@@]12CO[C@@H](CNC(=O)c3cnn(C)c3)[C@]1([H])CCN(S(C)(=O)=O)C2 gave Mtb glucose medium: 18.33%; Mtb cholesterol medium: -8.083%. [H][C@]12C[C@H](C(=O)NCC3CC3)N(C(C)C)[C@@]1([H])CN(Cc1ccco1)C2 read Mtb glucose medium: 10.21%; Mtb cholesterol medium: -3.462% and -1.315%. [H][C@@]12CCCC[C@]1(O)CCN(C(C)=O)[C@H]2c1ccc2c(c1)OCO2 read Mtb glucose medium: -14.07%; Mtb cholesterol medium: -7.403%.

With O=C(O)C(F)(F)F.[H][C@@]12CO[C@@H](CNC(=O)c3nccn3C)[C@]1([H])CCN(CCC)C2 the screen gave Mtb glucose medium: -12.7%; Mtb cholesterol medium: 1.42%. Result for [H][C@]12CC[C@]([H])(CN(Cc3cnc(-c4cccc(OC)c4)s3)C1)N(C)C2=O was Mtb glucose medium: 29.27%; Mtb cholesterol medium: 16.11%. With Cc1c[nH]nc1C1CCCN1Cc1ncc[nH]1.O=CO (stereo unspecified) the screen gave Mtb glucose medium: 16.17%; Mtb cholesterol medium: -1.558%. CN1CCN(Cc2cccnc2)C(=O)C12CCN(C1CCOC1)CC2.O=C(O)C(F)(F)F.O=C(O)C(F)(F)F.O=C(O)C(F)(F)F (stereo unspecified) read Mtb glucose medium: -37.07%; Mtb cholesterol medium: -11.39%. With CC(C)C1CCC(N2CCN(CCCS(C)(=O)=O)CC2)CC1 (stereo unspecified) the screen gave Mtb glucose medium: -13.39%; Mtb cholesterol medium: 3.364%.

Cc1cc(N2CCN(Cc3cn(C)nc3C)CC2)cc(C2CCNC2)n1.Cl (stereo unspecified) read Mtb glucose medium: 7.007%; Mtb cholesterol medium: -4.882% and -2.398%. O=C1NCCCCC1NC(=O)C1(c2ccc3c(c2)OCCO3)CCCC1 (stereo unspecified) read Mtb glucose medium: -29.57%; Mtb cholesterol medium: -22.59% and -9.489%. Result for Cc1nn(CCCNC(=O)C2CCN(S(C)(=O)=O)CC2)cc1Br was Mtb glucose medium: 0.2658% and 6.948%; Mtb cholesterol medium: 5.634%.

The first 2 entries again:

SMILES,Mtb glucose medium,Mtb cholesterol medium
O=c1[nH]cc(Nc2ccccc2)c(=O)[nH]1,-8.154 and 16.29,-64.47
CCN1CCN(CCCNC(=O)c2cc3ccc(C)cc3nc2C)CC1,-4.906,-1.283 and -5.934